Experimental data from US20070015155A1.
These are yes or no findings as the source states them, for the method shown. Some results given as binding are weak or reduced against the parent protein; the word gives no strength. Where a sequence is shown, tags or fusion partners need not be part of it.

Legend:
[1] = biological target: mouse c-Cbl in the expression vector for the yeast two-hybrid system (mouse) (UniProt P22682); assay: restates the yeast two-hybrid result of Example 1
[2] = biological target: mouse c-Cbl in the expression vector for the yeast two-hybrid system (mouse) (UniProt P22682); assay: yeast two-hybrid screen, mouse c-Cbl against human skeletal muscle library

binding [1]: binds | binding [2]: binds
B1: fusion protein of the human skeletal muscle library clone containing the 55 amino acid residues on the carboxyl end of the polypeptide represented by SEQ ID … (protein, not shown: large carriers)
chain: RRRGLVMEAPQGSEATLPGPAPGEPWEAGGPHAGPPPAFFSACPVCGGLKVNPPP
